PubChem BioAssay AID504764 – Drosophila RNAi Screening Center | 2011
Aim: 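Knock-downs that raise or lower a Notch target reporter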 (primary screen). System: Drosophila Kc167 cells. Reagent: long dsRNA against Drosophila genes. Time to read-out: about 5 days (4 days dsRNA, then 24 h after transfection). Conditions: transfection of constitutively active membrane-tethered Notch lacking the extracellular domain, read 24 h later. Measurement: 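Light from a Notch-responsive E(spl)m3 luciferase reporter under active Notch, with control-promoter and no-Notch reporter wells to normalise; raw counts from paired wells a and b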. Reading the numbers: induced reporter light, run 1, well a and induced reporter light, run 1, well b: higher = more light from the Notch target reporter with active Notch; control promoter light, run 1, well a and control promoter light, run 1, well b: higher = more light from the viral control promoter (cell number, transfection, viability); uninduced reporter light, run 1, well a: higher = more light from the Notch target reporter without active Notch. Hit rule: 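Wells with low control signal or poorly matching duplicates excluded; duplicates averaged; per source plate, z beyond ±2 for induced/control log2 ratio or beyond ±1.8 for induced/uninduced marks a hit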. Meaning of the calls: active = modifier hit (raised or lowered Notch signal); inactive = not a hit.
In all, the deposit lists about 22,000 reagents; this is a random part of those with a known target gene and a result. Of all reagents, 403 (1.9%) got an active call. 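Unnormalised raw counts per well; ratio z-scores behind the hit calls and whether each hit raises or lowers signal are not deposited.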 Not given: the amount of reagent.

Gene	DRSC id	induced reporter light, run 1, well a	induced reporter light, run 1, well b	control promoter light, run 1, well a	control promoter light, run 1, well b	uninduced reporter light, run 1, well a	activity call
mRpL41 (mitochondrial ribosomal protein L41)	DRSC06257	66765	88670	1.08e5	94235	7470	inactive
Ephrin	DRSC17165	1.37e5	1.22e5	1.89e5	1.92e5	9505	inactive
CG15332	DRSC18015	1.20e5	1.43e5	2.87e5	2.17e5	9690	inactive
CG32195	DRSC09533	1.94e5	1.71e5	2.74e5	3.09e5	20490	inactive
AlkB	DRSC19115	92740	84470	82215	88870	7315	inactive
obe (obelus)	DRSC15736	1.39e5	1.17e5	1.09e5	90765	9945	inactive
Ptp99A (Protein tyrosine phosphatase 99A)	DRSC13933	1.93e5	1.89e5	1.91e5	1.81e5	15195	inactive
Ptp99A (Protein tyrosine phosphatase 99A)	DRSC13939	1.52e5	1.59e5	1.60e5	1.64e5	12140	inactive
Ptp99A (Protein tyrosine phosphatase 99A)	DRSC14319	1.53e5	1.35e5	1.60e5	1.42e5	11540	inactive
Ptp99A (Protein tyrosine phosphatase 99A)	DRSC14320	1.72e5	1.62e5	1.83e5	1.88e5	13460	inactive
Ptp99A (Protein tyrosine phosphatase 99A)	DRSC16803	1.64e5	1.41e5	2.56e5	2.32e5	16040	inactive
DNaseII (Deoxyribonuclease II)	DRSC16310	2.38e5	2.06e5	2.52e5	2.52e5	19140	inactive
Cluap1 (Clusterin associated protein 1)	DRSC20637	68230	99460	83015	96640	10140	inactive
CG32808	DRSC17689	70695	86160	96390	94930	6335	inactive
CG9547	DRSC03260	1.47e5	1.42e5	1.46e5	1.44e5	12170	inactive
CG5104	DRSC11765	1.49e5	1.03e5	97540	93725	7075	inactive
Cep89 (Centrosomal protein 89kDa)	DRSC07110	72505	94795	97560	99465	8310	inactive
FucT6 (alpha1,6-fucosyltransferase)	DRSC19848	1.11e5	1.16e5	1.39e5	1.61e5	7455	inactive
CG42322	DRSC15112	1.41e5	1.56e5	2.28e5	1.91e5	15510	inactive
CG42322	DRSC15113	1.54e5	1.44e5	1.99e5	1.74e5	10745	inactive
CG42322	DRSC15114	59020	62690	47535	48450	8955	inactive

Only “induced reporter light, run 1, well b” (2 entries from above):
AlkB [DRSC19115]: 84470
obe (obelus) [DRSC15736]: 1.17e5
